Screening data, single-dose tests

The chains behind the UniProt entries cited, without tags or fusion partners.
UniProt P9WFT3, whole entry: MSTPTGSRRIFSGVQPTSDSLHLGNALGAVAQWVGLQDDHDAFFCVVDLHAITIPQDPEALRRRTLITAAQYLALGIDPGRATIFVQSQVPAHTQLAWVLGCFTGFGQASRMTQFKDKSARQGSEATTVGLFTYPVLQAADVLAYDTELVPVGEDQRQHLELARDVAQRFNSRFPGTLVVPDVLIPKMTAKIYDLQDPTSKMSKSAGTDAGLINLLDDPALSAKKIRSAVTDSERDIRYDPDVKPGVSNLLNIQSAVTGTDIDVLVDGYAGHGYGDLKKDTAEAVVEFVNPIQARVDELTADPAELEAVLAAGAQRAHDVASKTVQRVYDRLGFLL

Data taken from ChEMBL document CHEMBL3988442, “University of Dundee, Small-Polar-MMV Screening Library” (2021).

Results are given as percent effect. How 0% and 100% were set is not recorded. Most values in the screen are low, and negative values occur. Compounds were drawn at random from those tested, without regard to their results.

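Enzyme assay of tryptophanyl-tRNA synthetase; the read-out is not stated. Target: Tryptophan-tRNA ligase, Mycobacterium tuberculosis (UniProt P9WFT3). Compounds at 10 µM. Higher most likely means stronger inhibition; the record gives no direction and few retests gave an IC50. About 65,000 compounds were tested under these conditions; 0.098% (about 64) showed 50% or more at least once.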

SMILES	effect
c1cc(-c2noc(CN3CCn4c(nnc4C4CC4)C3)n2)co1	-1.559%
Cc1cc2[nH]cc(C(=O)N3CCCCC3c3ccc(F)cc3)c(=O)n2n1 (centres unmarked)	-5.093%
Cc1nsc2ncc(C(=O)N3CCCC3c3cnn(C)c3)cc12 (centres unmarked)	1.687%
CNC(=O)[C@@H]1C[C@@H](NC(=O)CCCc2cccs2)CN1C1CCOCC1	6.871%
c1nc2n(c1CN1CCOCC1)CCN(C1CCOC1)CC2 (centres unmarked)	3.909%
CN(C)c1cnnc(N2CCN(C(=O)Cc3ccccc3)CC2)c1	-0.5319%
CCN(C(=O)NCCc1ccccc1Cl)C(C)CS(C)(=O)=O (centres unmarked)	3.715%
CCc1ccc(CN2CCC(c3ccccc3C(=O)O)C2)nc1 (centres unmarked)	0.8909%
CCN(CCNC(=O)C1CCN(C(C)=O)CC1)c1ccccc1C	0.5187%
CCOC(=O)CNC(=O)NCc1cc(C)n(-c2ccc(OC)cc2)c1C	2.249%
O=C(CCNc1ncc2c(n1)CCN2c1ccccc1)N1CCCC1	-4.31%
CN(CCc1ccccn1)C(=O)Cn1cc(-c2ccccc2)nn1	-0.3068%
CN(C)c1ncccc1CNS(=O)(=O)c1ccc(C(N)=O)cc1	-8.711%
CC(C)n1ccc(C(=O)OCC2CC(=O)N(Cc3ccccc3)C2)n1 (centres unmarked)	-0.9524%
Cc1cnc2c(c1NCc1cccnc1)c(=O)n(C)c(=O)n2C	-1.242%
Cc1c(NCCOCC(F)(F)F)cccc1C(=O)N1CCCC1	-5.932%
CC1CN(c2ncnc3ccccc23)CCO1 (centres unmarked)	6.464%
Cc1cc(N2CCCN(C(=O)Cc3csc(C)n3)CC2)ccn1	-1.316%
CCOc1ccc(CN(C)C(C)C(=O)Nc2cc(C)no2)cc1 (centres unmarked)	-6.295%
CCC(CC)CNC(=O)N(C)C(C)c1ccccn1 (centres unmarked)	14.24%
COCc1nc(NC(C)c2c(C)n[nH]c2C)c2cnn(C)c2n1 (centres unmarked)	-0.8396%
COc1ccccc1CN1CC[C@H]2C[C@@H](C(=O)N3CCCC3)O[C@H]2C1	0.3308%
Cc1c(C2SCC(=O)Nc3c2cnn3C(C)(C)C)cnn1C (centres unmarked)	1.1%
Cn1cnnc1C1CCCN(C(=O)NCCc2ccccc2F)C1 (centres unmarked)	-0.7037%
CS(=O)(=O)N1CCN(CC(O)COc2ccc(Cl)cc2)CC1 (centres unmarked)	-3.636%
CCC(C#N)NC(=O)COC1CCCCC1 (centres unmarked)	-4.499%
NC(=O)C1CCN(CCc2ccc(NCc3cscn3)cc2)CC1	-4.124%
CS(=O)(=O)CCn1ccc(NCc2ccc(C#N)cc2)n1	-1.252%
Cc1cccc(CN2CC3C[C@]3(NC(=O)c3ccoc3)C2)n1 (some centres unmarked)	2.81%
CC(C)c1n[nH]c(C(=O)Nc2ccccn2)c1Br	-10.05%
COc1ccsc1C(=O)NCCN1CCOCC1	-3.86%
COc1cc(CO)c(OC)c2c1OCO2	0.2547%
CN(C)c1ncnc2c1CCN(S(=O)(=O)c1cccc(Cl)c1Cl)C2	-0.854%
O=S(=O)(c1cncc(F)c1)N1CCC2(CCCCC2)C1	-1.573%
CCn1cc(CNCC(c2ccc(C)s2)N2CCOCC2)cn1 (centres unmarked)	-3.685%
CCc1nn(C)c2[nH]nc(NC(=O)c3cccnc3OCC(C)C)c12	3.47%
Cc1noc(C)c1CN(C)Cc1csc(-c2ncccn2)n1	4.439%
O=C(NCCNc1ccc(C(F)(F)F)cn1)c1ccc(Br)cc1F	-0.3909%
Cc1ccc(C)c(C(=O)N2CCC3(CCC(=O)N(CC(N)=O)C3)CC2)c1	2.928%
c1coc(-c2nnc(CN3CCOC(Cn4cccn4)C3)o2)c1 (centres unmarked)	2.124%
CCn1cc(CNc2ccc(Br)c(OC)c2)cn1	3.505%
O=C1NC2(CCc3ccccc31)CCN(C(=O)c1cccnc1)C2 (centres unmarked)	0.1302%
O=c1[nH]c(CN2CCCC(Cn3cncn3)C2)nc2ccccc12 (centres unmarked)	0.8708%
Cc1nn(C)cc1-c1cncn1CCN(C)C1CCCC1	-5.849%
CCc1nc2n(n1)CC(NCc1cc(OC)c3c(c1)OCCO3)CC2 (centres unmarked)	14.5%
CC(C)C(C(=O)NC1CCOCC1)n1cnc2cc(F)c(F)cc21 (centres unmarked)	0.2865%
CC(C(=O)N1CCCC1)N1CCC(c2nccn2Cc2cscn2)CC1 (centres unmarked)	-0.7519%
CCS(=O)(=O)CCN1CCCC1c1noc(C)n1 (centres unmarked)	-3.076%
O=C(NCc1nncn1C1CC1)c1cccnc1Oc1ccccc1	2.352%
CCOc1ncccc1CNC(=O)N1CCCC1c1ccncc1 (centres unmarked)	-0.8881%
Oc1cccc(-c2cc(C3CCN(Cc4cncnc4)C3)ccn2)c1 (centres unmarked)	0.3276%
O=C(c1ccccc1O)N1CCN(C(=O)C2CCC2)CC1	1.135%
O=C(NC1CC1)c1ccn(COc2c(Cl)cccc2Cl)n1	2.419%
Cc1nc(C)n(CC2CCCN2Cc2nc(C)c3ccccc3n2)n1 (centres unmarked)	0.5112%
Cc1cc(CN2CCN(C(=O)NCc3c(C)noc3C)CC2)on1	-1.945%
COCCC(=O)N1C[C@@H](c2ccccc2F)[C@@]2(CCCC(=O)N2)C1	-0.1447%
CCn1cc(NC(=O)NCC(C)N(C)C2CC2)cn1 (centres unmarked)	-5.731%
COC(=O)C(c1cc(F)ccc1F)N(C)C(=O)c1csnn1 (centres unmarked)	-0.6823%
c1nc2c(c(N3CCCC(Cn4cncn4)C3)n1)CCC2 (centres unmarked)	-2.102%
O=C(NC1CC1)[C@@H]1CCO[C@@H]2CCN(CCc3ccccc3)C[C@@H]21	4.58%
COCc1cc(NCCc2ccc(S(N)(=O)=O)cc2)n2nccc2n1	0%
COc1cccc(C)c1C(=O)N1CCc2ncnc(NCCO)c2CC1	3.53%
CCC(Nc1nc(C)nc2c1cnn2C)c1ncnn1CC (centres unmarked)	2.385%
Cc1nc(C(C)(C)NCc2ncc(C(C)C)o2)sc1C	2.427%

Some entries from above, unchanged:

SMILES,effect
Cc1c(NCCOCC(F)(F)F)cccc1C(=O)N1CCCC1,-5.932%
CCn1cc(CNc2ccc(Br)c(OC)c2)cn1,3.505%
CCN(CCNC(=O)C1CCN(C(C)=O)CC1)c1ccccc1C,0.5187%
Cc1c(C2SCC(=O)Nc3c2cnn3C(C)(C)C)cnn1C (centres unmarked),1.1%
CC(C)n1ccc(C(=O)OCC2CC(=O)N(Cc3ccccc3)C2)n1 (centres unmarked),-0.9524%